Assay results published in US6906108B2, “Extracts of vetiver oil as repellent and toxicant to ants, ticks, and cockroaches” (Board of Supervisors of Louisiana State University and …, priority 2001, dated 2005).
Some entries share one result that the patent states for a list of compounds.

Tests used:
[1] = test system: ticks (Ixodes scapularis); test: Tick Petri dish bioassay with treated sand (repellency and toxicity); format: in vivo; details: for Time that repellent activity was retained in all Petri dishes: repeat experiment, ticks from Hammond; for Time that repellent activity remained in all Petri dishes: ticks from Idlewild, active from 15 min
Procedure: To test the effectiveness of nootkatone against ticks, ticks (Ixodes scapularis) were collected from Idlewild, La. Nootkatone efficiacy was tested relative to a known repellent, N,N-diethyl-m-toluamide (“Deet”). REPEL®, which contains 27.55% Deet, was purchased locally from a retail garden store.
The bioassay was conducted using Petri dishes (5 cm diameter and 1 cm height). To ensure adequate moisture for the ticks, 1 ml of a hot agar solution (1.5% in H2O) was spread evenly on the inside surfaces of the Petri dish, including the top, bottom, and edges. After the agar cooled, sand that was treated as described below was spread evenly on the inside surfaces of the Petri dish. The sand was held in place by the agar.
For the treated sand, either 2 mg nootkatone or 100 mg REPEL® was initially dissolved in 2 ml ethanol, and then 200 μl of the solution was mixed with 2 g sand that had been autoclaved and cooled. The control was autoclaved sand with 200 μl ethanol only added. One half of the surfaces in the Petri dishes were covered with 2 g treated sand, and the other half with 2 g untreated sand. In the nootkatone-treated Petri dishes, the final concentration was 200 μg/dish; while in the Deet treated Petri dishes, the final concentration was 2.75 mg/dish. Control Petri dishes were prepared by covering all sides with untreated sand. One tick was added to each Petri dish, and the top replaced. The number of replicates were as follows: control, 6; nootkatone, 9; and Deet, 8. […] Repellent activity was noted if the tick was found on the untreated side of the Petri dish. The ticks in the control Petri dishes were randomly distributed on the left and right sides.
The above experiment was repeated with ticks (Ix. scapularis) collected from Hammond, La. The number of replicates in this experiment were as follows: controls, 8; nootkatone, 10; and Deet, 8.

[2] = test system: Imported red fire ants, Solenopsis invicta; test: Fire ant three-chambered container bioassay with treated sand (repellency and mortality); format: in vivo; details: in sand
Excerpt: Nootkatone was purchased from a commercial source (Lancaster Synthesis Inc. Windham, N.H.). The source of the vetiver oil was The Good Scents Company (Oak Creek, Wis.). Three-chambered clear plastic containers (17×8×4 cm; Pioneer Packaging Co., North Dixon, Ky.) were used to test the effect of nootkatone and vetiver oil on the fire ants. Each rectangular container (17×8×4 cm) was divided into three equal compartments with two inner walls. A small hole (0.5 cm diameter) was melted at the bottom of each of the inner walls to permit fire ant access to all chambers. The top inner sides of the containers were coated with FLUON® (Northern Products, Inc., Woonsocket, R.I.) to prevent ants from escaping. […]
The number of ants, expressed as a percent of the total number in the container, found in the treated area after the first 15 minutes was compared using a two-way ANOVA followed by Newman-Keuls post-hoc test, considering the factors “colony” (A, B) and “treatment” (Control, Noot-100, Noot-10, Vet-100, Vet-10). Data for both the number of live and dead ants (expressed as percent of the total) during the seven days of the experiment were analyzed with 2-way ANOVA for repeated measures followed by Newman-Keuls post-hoc tests, considering the variables “colony” and “treatment” and the variable “day” as the repeated factor. […]

| SMILES | Time that repellent activity was retained in all Petri dishes ([1]; 2.75 mg/dish) | Time that repellent activity remained in all Petri dishes ([1]; 2.75 mg/dish) | Concentration that decreased ant invasion and increased ant mortality [2] | Time that repellent activity was retained in all Petri dishes ([1]; 200 μg/dish) | Time that repellent activity remained in all Petri dishes ([1]; 200 μg/dish) |
| --- | --- | --- | --- | --- | --- |
| CCN(CC)C(=O)c1cccc(C)c1 [Deet, N,N-diethyl-m-toluamide, reference compound] | ≥ 72 h | ≥ 68 h |  |  |  |
| C=C(C)C1CCC2=CC(=O)CC(C)C2(C)C1 (centres unmarked) [nootkatone, 4,4a,5,6,7,8-hexahydro-6-isopropenyl-4,4a-dimethyl-2(3H)-naphthalone] |  |  | ≤ 10 µg/g | ≥ 72 h | ≥ 68 h |
